Survivor count data for 25 molecules are collected here from PubChem BioAssay AID248 (DTP/NCI, 2004).

The list is a part of this screen's results and no random one: it is rich in T/C values a quarter to a half above the control, in often repeated tests (any T/C) and in doses without a T/C. Further doses and runs are listed elsewhere. T/C is the treated group as % of the vehicle group. Some entries give survivors of the animals treated and no T/C: the source files T/C as zero there, which appears to mark a toxic dose or a test without result, not a measured value. Some doses without a T/C left all or most animals alive at the check, yet need not have been tolerated: survival well below the control is almost never listed, so the zero probably covers shortened survival too. Survivors were counted at the toxicity check, usually on the fifth day, unless a day is given; later deaths do not show. Schedules are NCI's codes, taken here to give the interval after Q, in days (D) or hours (H), and the number of doses after X. Some schedule codes hold Z or #, which are not explained here. Some entries hold several experiments; their values stand side by side, smallest first.

For this assay, the system named is L1210 leukemia ip in BDF1 mice, survival T/C. The assay is described as follows: NCI In Vivo Anticancer Drug Screen. Data for tumor model L1210 Leukemia (intraperitoneal) in B6D2F1 (BDF1) mice. To be noted: T/C endpoint: mean survival time, higher T/C = longer survival.
Where [1] appears, read: dose: 400.0 mg/kg/injection, schedule: Q01DX001 (ip), vehicle: saline.
[2] abbreviates: dose: 200.0 mg/kg/injection, schedule: Q01DX009 (ip), vehicle: saline.
Where [3] appears, read: dose: 400.0 mg/kg/injection, schedule: Q01DX009 (ip), vehicle: saline.
[4] abbreviates: dose: 400.0 mg/kg/injection, schedule: Q04DX003 (ip), vehicle: Klucel (hydroxypropylcellulose) (HPC).
[5] abbreviates: dose: 400.0 mg/kg/injection, schedule: Q01DX001 (ip), vehicle: Klucel (hydroxypropylcellulose) (HPC).
The mark [6] stands for this setting: dose: 400.0 mg/kg/injection, schedule: Q04DX002 (ip), vehicle: saline.

As to `CCc1c(CNc2ccc(C(=O)NC(CCC(=O)O)C(=O)O)cc2)ccc2nc(N)nc(N)c12` (stereo not given), the survivor count was 5 of 6 (dose: 0.03 mg/kg/injection, schedule: Q01DX009 (ip), vehicle: saline); 6 of 6 (dose: 0.06 mg/kg/injection, schedule: Q01DX009 (ip), vehicle: saline); 6 of 6 (dose: 0.12 mg/kg/injection, schedule: Q01DX009 (ip), vehicle: saline); 6 of 6 (dose: 0.25 mg/kg/injection, schedule: Q01DX003 (ip), vehicle: saline); 6 of 6 (dose: 0.5 mg/kg/injection, schedule: Q01DX003 (ip), vehicle: saline); 5 of 6 (dose: 1.0 mg/kg/injection, schedule: Q01DX009 (ip), vehicle: saline). For the same molecule, the survivor count (dose: 2.0 mg/kg/injection, schedule: Q01DX009 (ip), vehicle: saline) is 6 of 6; the survivor count (dose: 8.0 mg/kg/injection, schedule: Q01DX009 (ip), vehicle: saline) was 6 of 6; the survivor count (dose: 16.0 mg/kg/injection, schedule: Q01DX009 (ip), vehicle: saline) was 6 of 6; the survivor count (dose: 20.0 micrograms/kg/injection, schedule: Q01DX009 (ip), vehicle: saline) is recorded as 5 of 6.

`O=C/C=C/c1cc(Cl)ccc1O`: under setting [1], the survivor count is 0 of 6.

On to `COc1cc2c(cc1OC)C13CCN4C=C5CCOC6CC(=O)N2C1C6C5CC43` (stereo not given), for which the survivor count is recorded as 0 of 6 (dose: 150.0 mg/kg/injection, schedule: Q01DX001 (ip), vehicle: other) and 0 of 6 (dose: 300.0 mg/kg/injection, schedule: Q01DX001 (ip), vehicle: other).

As for `O=C(NN1C(=O)CSC1=S)c1ccc([N+](=O)[O-])s1`, the survivor count (dose: 200.0 mg/kg/injection, schedule: Q01DX005 (ip), vehicle: saline) was 0 of 4 and the survivor count (dose: 400.0 mg/kg/injection, schedule: Q01DX005 (ip), vehicle: saline) is on record as 0 of 4.

For `CC(C)(C)CC(Cl)Cl`, the survivor count (dose: 400.0 mg/kg/injection, schedule: Q01DX009 (ip), vehicle: Klucel (hydroxypropylcellulose) (HPC)) is reported as 0 of 6.

`C#CCOCC(O)CO` (stereo not given): the survivor count reads like this: (dose: 25.0 mg/kg/injection, schedule: Q01DX009 (ip), vehicle: water) 6 of 6; (dose: 50.0 mg/kg/injection, schedule: Q01DX009 (ip), vehicle: water) 3 of 6; (dose: 100.0 mg/kg/injection, schedule: Q01DX009 (ip), vehicle: water) 5 of 6; (dose: 200.0 mg/kg/injection, schedule: Q01DX009 (ip), vehicle: water) 6 of 6; (dose: 400.0 mg/kg/injection, schedule: Q01DX009 (ip), vehicle: water) 1 of 6.

As for `CCCC[As](=O)(O)CC`, the survivor count is 2 of 3 (dose: 50.0 mg/kg/injection, schedule: Q01DX009 (ip), vehicle: saline); 0 of 3 and 5 of 6 (dose: 100.0 mg/kg/injection, schedule: Q01DX009 (ip), vehicle: saline); 0 of 6 under setting [2]; 0 of 6 under setting [3].

For the molecule `CC1CN=C(c2ccc(N)cc2)S1` (stereo not given), where the note is “dose: 350.0 mg/kg/injection, schedule: Q04DX003 (ip), vehicle: Klucel (hydroxypropylcellulose) (HPC)”, the survivor count is recorded as 0 of 6.

On to `C=C(C)C1CCC2(C(=O)OC)CCC3(C)C(CCC4C5(C)CCC(OC6CCCCO6)C(C)(C)C5CCC43C)C12` (stereo not given), for which the survivor count (dose: 50.0 mg/kg/injection, schedule: Q04DX002 (ip), vehicle: saline with Tween-80) was 3 of 3.

`CCSCN1CCN(CSCC)CC1`: under setting [1], the survivor count is given as 0 of 6.

For `NC(=O)N/N=C(\CBr)c1ccc(Br)cc1`, the survivor count is 4 of 6 under setting [2] and 3 of 6 under setting [3].

With `COC(=O)c1ccccc1NC(=O)Nc1ccccc1Cl`, the survivor count is recorded as 6 of 6 (dose: 200.0 mg/kg/injection, schedule: Q01DX009 (ip), vehicle: Klucel (hydroxypropylcellulose) (HPC)) and 6 of 6 under setting [4].

With `CCOC(=O)CNC(=O)OCCSc1ccc(C)cc1`, where the note is “dose: 400.0 mg/kg/injection, schedule: Q01DX009 (ip), vehicle: saline with Tween-80”, the survivor count is 1 of 6.

For `O=C1CC(=O)C(Cl)=C1Cl`, the survivor count runs as follows: (dose: 30.0 mg/kg/injection, schedule: Q01DX001 (ip), vehicle: carboxymethylcellulose (CMC)) 2 of 6; (dose: 60.0 mg/kg/injection, schedule: Q01DX001 (ip), vehicle: carboxymethylcellulose (CMC)) 0 of 6; (dose: 75.0 mg/kg/injection, schedule: Q01DX001 (ip), vehicle: carboxymethylcellulose (CMC)) 0 of 6; (dose: 150.0 mg/kg/injection, schedule: Q01DX001 (ip), vehicle: carboxymethylcellulose (CMC)) 0 of 6; (dose: 300.0 mg/kg/injection, schedule: Q01DX001 (ip), vehicle: carboxymethylcellulose (CMC)) 0 of 6.

In the case of `Nc1ccc(CC2=C(Br)CNC(=O)N2)cc1`, the survivor count under setting [5] was 0 of 6.

In the case of `C[C@]12CC[C@H](O)CC1=CC[C@@H]1[C@@H]2CC[C@](C)(C(=O)O)[C@H]1CC1Nc2ccccc2C1=O` (stereo not given in full), for the setting “dose: 100.0 mg/kg/injection, schedule: Q01DX001 (ip), vehicle: saline”, the survivor count is reported as 6 of 6.

Turning to `c1ccc2[nH]c(C(=C(c3nc4ccccc4[nH]3)c3nc4ccccc4[nH]3)c3nc4ccccc4[nH]3)nc2c1`, the survivor count under setting [5] is 6 of 6.

As for `Cc1ccc(N2CCNCC2)cc1`, the survivor count reads like this: (dose: 100.0 mg/kg/injection, schedule: Q04DX003 (ip), vehicle: saline) 0 of 6; (dose: 200.0 mg/kg/injection, schedule: Q04DX003 (ip), vehicle: saline) 0 of 6; (dose: 400.0 mg/kg/injection, schedule: Q04DX003 (ip), vehicle: saline) 0 of 6.

Turning to `N#CC(C#N)N=O` (tested in a mixture with another compound), the survivor count under setting [6] was 0 of 3.

For the molecule `CCCCCCCCCCCCCCP(I)(N(C)C)(N(C)C)N(C)C`, the survivor count runs as follows: (dose: 6.25 mg/kg/injection, schedule: Q04DX002 (ip), vehicle: saline) 3 of 3; (dose: 12.5 mg/kg/injection, schedule: Q04DX002 (ip), vehicle: saline) 0 of 3; (dose: 25.0 mg/kg/injection, schedule: Q04DX002 (ip), vehicle: saline) 0 of 3; (dose: 100.0 mg/kg/injection, schedule: Q04DX002 (ip), vehicle: saline) 0 of 3; (dose: 200.0 mg/kg/injection, schedule: Q04DX002 (ip), vehicle: saline) 0 of 3; under setting [6], 0 of 3.

With `CCOP(=S)(S)OCC.[Pd]`, the survivor count by setting is: (dose: 50.0 mg/kg/injection, schedule: Q01DX009 (ip), vehicle: other) 4 of 6; (dose: 100.0 mg/kg/injection, schedule: Q01DX009 (ip), vehicle: other) 1 of 6.

Turning to `S=C(NCc1ccco1)NCc1ccco1`, the survivor count (dose: 350.0 mg/kg/injection, schedule: Q01DX Z (ip), vehicle: methylcellulose (MC)) is recorded as 1 of 6.

Regarding `O=C(C=C(C(F)(F)F)C(F)(F)F)c1ccc(Br)cc1`, the survivor count (dose: 100.0 mg/kg/injection, schedule: Q04DX003 (ip), vehicle: other) is listed as 1 of 6.

Consider `O=[N+]([O-])c1c(Cl)sc(Cl)c1[N+](=O)[O-]`, for which the survivor count is 0 of 6 (dose: 25.0 mg/kg/injection, schedule: Q04DX003 (ip), vehicle: Klucel (hydroxypropylcellulose) (HPC)); 0 of 6 (dose: 100.0 mg/kg/injection, schedule: Q04DX003 (ip), vehicle: Klucel (hydroxypropylcellulose) (HPC)); 0 of 6 (dose: 200.0 mg/kg/injection, schedule: Q04DX003 (ip), vehicle: Klucel (hydroxypropylcellulose) (HPC)); 0 of 6 under setting [4].

With `CC(=O)N(C)c1ccc(S(=O)(=O)F)cc1`, under setting [5], the survivor count is on record as 0 of 3.
